Source: PMC11662928, “L1-ORF1p nucleoprotein can rapidly assume distinct conformations and simultaneously bind more than one nucleic acid”
Negatives hold for the conditions tested. Where a protein sequence is shown, tags need not be part of it. For some assays here: For at least one entry, the source does not settle the construct or the ends of the probe.

Experiments:
[1] = target: T1, m128p (CTD, RRM, 3.5 of 14 CC heptads) (UniProt Q9UN81); test: confocal fluorescence with optical tweezers; conditions: 30 nM m128p with tethered 8.1 knt ssDNA, no ternary complex (not a test of free dT20 binding); 21 C (stated for m128p); 8.1 knt ssDNA held at 5-50 pN; recombinant protein; residues 128-338; protein details: N-terminal His; label: 5' Alexa488; single-stranded DNA
T1 sequence (looked up): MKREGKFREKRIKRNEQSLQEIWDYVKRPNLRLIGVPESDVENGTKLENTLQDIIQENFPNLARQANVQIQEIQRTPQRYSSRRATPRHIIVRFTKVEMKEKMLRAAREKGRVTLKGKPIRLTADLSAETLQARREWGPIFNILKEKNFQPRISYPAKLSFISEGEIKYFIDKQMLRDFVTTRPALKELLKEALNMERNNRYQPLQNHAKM

ORF1p WT (111p) = target: T2, ORF1p WT (111p) (UniProt Q9UN81); test: confocal fluorescence with optical tweezers; conditions: 1 nM ORF1p fully compacted on 8.1 knt ssDNA, no ternary complex (not a test of free dT20 binding); 21 C (stated for m128p); 8.1 knt ssDNA held at 5-50 pN; recombinant protein; protein details: N-terminal His; label: 5' Alexa488; single-stranded DNA
T2 sequence (looked up, limits assumed): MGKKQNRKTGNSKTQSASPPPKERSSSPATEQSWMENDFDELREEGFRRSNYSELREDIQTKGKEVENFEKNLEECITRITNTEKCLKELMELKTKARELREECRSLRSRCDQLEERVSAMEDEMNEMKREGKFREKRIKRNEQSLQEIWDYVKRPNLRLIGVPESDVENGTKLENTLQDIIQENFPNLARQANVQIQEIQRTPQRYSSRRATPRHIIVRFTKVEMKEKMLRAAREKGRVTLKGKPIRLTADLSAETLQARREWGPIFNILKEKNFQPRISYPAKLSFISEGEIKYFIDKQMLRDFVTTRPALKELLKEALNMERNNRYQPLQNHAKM

TTTTTTTTTTTTTTTTTTTT [Alexa488-dT20]: no binding [1]; no binding (ORF1p WT (111p)).
